{"source": "PubChem BioAssay AID743454 | Peter MacCallum Cancer Centre – 2014", "assay": "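Knock-downs lowering viability or raising caspase 3/7 activity in vorinostat-treated resistant cells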 (primary screen)", "cell system": "human HCT116-VR colon cancer cells, selected for vorinostat resistance", "reagents": "siRNA pool against human genes, 40 nM siRNA pool", "timing": "vorinostat for 24 h, read-out about 72 h after transfection", "conditions": "vorinostat at 2.5 µM final", "detection": "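Two measures, CellTiter-Fluor viability and luminescent caspase 3/7 activity, each as fold change against same-plate mock wells, mean of duplicates, then screen-wide robust z-score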", "reading the numbers": "viability robust z-score: higher = more viable cells than screen typical; caspase robust z-score: higher = more caspase 3/7 activity than screen typical", "hit rule": "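Hits are knock-downs in viability class RV1/RV2 or caspase class CA1/CA2, excluding ones that killed cells in the no-drug cell-count arm; hits then retested with single siRNAs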", "note": "The deposit covers about 18,000 reagents; shown is an unselected part. In the full data, 450 (2.5%) got an active call. 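Single biological run; no consistent viability z cut-off exists, so the class columns, not z-scores, define the calls.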 A number with no mark means an inactive call. Reagents against one gene are numbered here."}
{"gene knocked down":"SLC4A9","pool no.":1,"viability hit class":"no change","caspase hit class":"no change","viability robust z-score":1.12,"caspase robust z-score":0.53}
{"gene knocked down":"RTP1","pool no.":1,"viability hit class":"no change","caspase hit class":"no change","viability robust z-score":2.27,"caspase robust z-score":-0.15}
{"gene knocked down":"UQCC4","pool no.":1,"viability hit class":"no change","caspase hit class":"no change","viability robust z-score":-0.64,"caspase robust z-score":-0.88}
{"gene knocked down":"EVA1A","pool no.":1,"viability hit class":"no change","caspase hit class":"no change","viability robust z-score":-0.64,"caspase robust z-score":3.44}
{"gene knocked down":"SLC5A12","pool no.":1,"viability hit class":"no change","caspase hit class":"no change","viability robust z-score":1.81,"caspase robust z-score":-0.42}
{"gene knocked down":"FAM153CP","pool no.":1,"viability hit class":"no change","caspase hit class":"no change","viability robust z-score":-1.45,"caspase robust z-score":-0.72}
{"gene knocked down":"PEX11B","pool no.":1,"viability hit class":"no change","caspase hit class":"no change","viability robust z-score":1.54,"caspase robust z-score":0.12}
{"gene knocked down":"PM20D2","pool no.":1,"viability hit class":"no change","caspase hit class":"no change","viability robust z-score":-0.46,"caspase robust z-score":-0.46}
{"gene knocked down":"PKD1L2","pool no.":1,"viability hit class":"no change","caspase hit class":"no change","viability robust z-score":-0.36,"caspase robust z-score":-0.01}
{"gene knocked down":"ACTG2","pool no.":1,"viability hit class":"no change","caspase hit class":"no change","viability robust z-score":-0.12,"caspase robust z-score":-1.12}
{"gene knocked down":"DNAJC6","pool no.":1,"viability hit class":"no change","caspase hit class":"no change","viability robust z-score":-1.08,"caspase robust z-score":-1.05}
{"gene knocked down":"NQO2","pool no.":1,"viability hit class":"no change","caspase hit class":"no change","viability robust z-score":-0.88,"caspase robust z-score":0.18}
{"gene knocked down":"PHTF2","pool no.":1,"viability hit class":"no change","caspase hit class":"no change","viability robust z-score":0.05,"caspase robust z-score":-1.08}
{"gene knocked down":"PCNX1","pool no.":1,"viability hit class":"no change","caspase hit class":"no change","viability robust z-score":-0.26,"caspase robust z-score":1.53}
{"gene knocked down":"VCX2","pool no.":1,"viability hit class":"no change","caspase hit class":"no change","viability robust z-score":1.14,"caspase robust z-score":-0.78}
{"gene knocked down":"HCRT","pool no.":1,"viability hit class":"no change","caspase hit class":"no change","viability robust z-score":1.02,"caspase robust z-score":0.68}
{"gene knocked down":"BAGE2","pool no.":1,"viability hit class":"no change","caspase hit class":"no change","viability robust z-score":-0.68,"caspase robust z-score":3.46}
{"gene knocked down":"LINC02875","pool no.":1,"viability hit class":"no change","caspase hit class":"no change","viability robust z-score":1.62,"caspase robust z-score":0.28}
{"gene knocked down":"ENSA","pool no.":1,"viability hit class":"no change","caspase hit class":"no change","viability robust z-score":-0.76,"caspase robust z-score":-0.48}
{"gene knocked down":"CGB3","pool no.":1,"viability hit class":"no change","caspase hit class":"no change","viability robust z-score":0.12,"caspase robust z-score":-0.8}
{"gene knocked down":"CD276","pool no.":1,"viability hit class":"no change","caspase hit class":"no change","viability robust z-score":1.58,"caspase robust z-score":0.43}
{"gene knocked down":"MATK","pool no.":1,"viability hit class":"no change","caspase hit class":"no change","viability robust z-score":0.97,"caspase robust z-score":3.72}
{"gene knocked down":"ATP6V0E2","pool no.":1,"viability hit class":"no change","caspase hit class":"no change","viability robust z-score":-0.43,"caspase robust z-score":3}
{"gene knocked down":"CFAP46","pool no.":1,"viability hit class":"no change","caspase hit class":"no change","viability robust z-score":0.76,"caspase robust z-score":-0.18}
{"gene knocked down":"CFAP46","pool no.":2,"viability hit class":"no change","caspase hit class":"no change","viability robust z-score":0.44,"caspase robust z-score":-0.24}
{"gene knocked down":"SPR","pool no.":1,"viability hit class":"no change","caspase hit class":"no change","viability robust z-score":0.87,"caspase robust z-score":-0.36}
{"gene knocked down":"IDE","pool no.":1,"viability hit class":"no change","caspase hit class":"no change","viability robust z-score":0.64,"caspase robust z-score":2.13}

Quoted from above, 4 entries:
{"gene knocked down":"CFAP46","pool no.":1,"viability hit class":"no change","caspase hit class":"no change","viability robust z-score":0.76,"caspase robust z-score":-0.18}
{"gene knocked down":"CFAP46","pool no.":2,"viability hit class":"no change","caspase hit class":"no change","viability robust z-score":0.44,"caspase robust z-score":-0.24}
{"gene knocked down":"SPR","pool no.":1,"viability hit class":"no change","caspase hit class":"no change","viability robust z-score":0.87,"caspase robust z-score":-0.36}
{"gene knocked down":"IDE","pool no.":1,"viability hit class":"no change","caspase hit class":"no change","viability robust z-score":0.64,"caspase robust z-score":2.13}
